# Results: article PMC9755262 (Nature Communications, 2022)
# The chains behind the UniProt entries cited, without tags or fusion partners. Residues count along the entry.
# UniProt Q86Y26, residues 347-480: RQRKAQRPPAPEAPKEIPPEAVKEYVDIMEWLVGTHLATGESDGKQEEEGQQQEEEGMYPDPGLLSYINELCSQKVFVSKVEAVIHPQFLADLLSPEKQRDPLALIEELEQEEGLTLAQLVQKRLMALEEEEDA
# Results are given in words; binding and its absence hold for the method and conditions named. Some results given as binding are weak or reduced against the parent protein; the word gives no strength.
# How the values were obtained:
# NUT4 (347-480) = NUT4 (347-480) (UniProt Q86Y26); assay: SEC-MALS; Superdex 75 Increase 10/300 GL, 20 mM HEPES pH 7.0, 300 mM NaCl, 5 µM ZnSO4, 0.5 mM TCEP; 50 µl at 2 mg/ml injected; both purified
# [1] = target: Histone H3 (S. cerevisiae, in the NCP) (S. cerevisiae) (UniProt P61830); assay: cross-linking; NCPs and p300 core-CH3 (1043-1828) at 0.5-1 mg/ml, 2 mM DSS-H12/D12, 30 min at 35 °C; 20 mM HEPES pH 7.0, 300 mM NaCl, 1 mM DTT, 5 µM ZnCl2; mass spectrometry; both purified
binding (NUT4 (347-480)),binding [1],Substance
no binding (tested: 2 mg/ml injected),–,NUT4 (347-480) (from UniProt Q86Y26 347-480) (domain or fragment)
–,binds,p300 core-CH3 (1043-1828) (from UniProt Q09472 1043-1828) (domain or fragment)
